Reference: publication PMC12329598
Results are given in words; binding and its absence hold for the method and conditions named. In cells and extracts the contact can be indirect. Some entries that bind do so weakly or less than the wild type.

Amino acid sequences for entries named in this document (tags omitted). A change or cut given only in a name is not applied to a line headed by its entry.
UniProt P47736: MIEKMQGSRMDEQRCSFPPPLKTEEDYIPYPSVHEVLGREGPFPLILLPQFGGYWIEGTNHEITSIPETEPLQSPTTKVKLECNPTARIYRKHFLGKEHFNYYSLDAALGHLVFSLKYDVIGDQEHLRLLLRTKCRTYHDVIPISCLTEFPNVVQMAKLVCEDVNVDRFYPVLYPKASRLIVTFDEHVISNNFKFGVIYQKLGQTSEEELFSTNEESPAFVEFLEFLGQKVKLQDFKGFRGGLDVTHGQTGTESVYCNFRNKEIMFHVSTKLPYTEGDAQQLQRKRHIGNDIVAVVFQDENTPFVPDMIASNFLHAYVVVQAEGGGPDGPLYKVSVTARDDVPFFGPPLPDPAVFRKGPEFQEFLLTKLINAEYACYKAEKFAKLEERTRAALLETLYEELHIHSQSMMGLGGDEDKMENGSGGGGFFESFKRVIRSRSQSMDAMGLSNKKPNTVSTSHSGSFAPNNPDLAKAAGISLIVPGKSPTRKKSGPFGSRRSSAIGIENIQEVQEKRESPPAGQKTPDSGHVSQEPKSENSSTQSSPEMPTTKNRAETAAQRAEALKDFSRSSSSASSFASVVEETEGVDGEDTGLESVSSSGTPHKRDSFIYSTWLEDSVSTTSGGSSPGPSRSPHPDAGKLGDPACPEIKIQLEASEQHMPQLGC
UniProt P09471: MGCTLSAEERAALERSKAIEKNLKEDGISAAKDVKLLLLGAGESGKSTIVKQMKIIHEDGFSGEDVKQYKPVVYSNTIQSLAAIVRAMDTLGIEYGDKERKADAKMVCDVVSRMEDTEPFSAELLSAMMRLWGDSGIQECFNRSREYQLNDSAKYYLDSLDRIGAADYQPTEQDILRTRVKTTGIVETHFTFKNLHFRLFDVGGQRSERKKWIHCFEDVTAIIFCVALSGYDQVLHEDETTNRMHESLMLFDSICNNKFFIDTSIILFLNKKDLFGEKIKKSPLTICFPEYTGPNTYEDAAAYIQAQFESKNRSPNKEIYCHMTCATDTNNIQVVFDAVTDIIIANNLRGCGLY

How the values were obtained:
[1] = molecular target: 2xFlag-Rap1GAP1a (human) (UniProt P47736); test: co-IP; Flag-Rap1GAP1a co-expressed with HA-Gαo^(WT) or HA-Gαo^(Q205L) in A293 cells; modRIPA lysate; M2-Flag magnetic beads 2 h at 4 °C; Flag peptide elution; HA blot
[2] = molecular target: 2xFlag-Rap1GAP1a SmBiT (human) (UniProt P47736); test: split reporter; Rap1GAP1a SmBiT (600 ng) co-transfected with HA-Gαo LgBiT (200 ng) in HEK cells, 24 h; live cells in HBSS with 10 μM furimazine; luminescence at 37 °C

Row | binding [1] | binding [2] | Substance
1 | binds |  | HA-Gαo^(Q205L) (from UniProt P09471 1-354)
2 |  | binds | HA-Gαo^(Q205L) LgBiT (from UniProt P09471 1-354)
3 |  | binds | HA-Gαo^(Q205L/A221D) LgBiT (from UniProt P09471 1-354)
4 |  | binds | HA-Gαo^(Q205L/N242T) LgBiT (from UniProt P09471 1-354)
